These are yes or no findings as the source states them, for the method shown. In cells and extracts the contact can be indirect. These calls come from enrichment with a bait or labelling near it, and not all partners need be listed.
T1: SPATA5L1 (human (endogenous in HCT116)) (UniProt Q9BVQ7)
T1 sequence: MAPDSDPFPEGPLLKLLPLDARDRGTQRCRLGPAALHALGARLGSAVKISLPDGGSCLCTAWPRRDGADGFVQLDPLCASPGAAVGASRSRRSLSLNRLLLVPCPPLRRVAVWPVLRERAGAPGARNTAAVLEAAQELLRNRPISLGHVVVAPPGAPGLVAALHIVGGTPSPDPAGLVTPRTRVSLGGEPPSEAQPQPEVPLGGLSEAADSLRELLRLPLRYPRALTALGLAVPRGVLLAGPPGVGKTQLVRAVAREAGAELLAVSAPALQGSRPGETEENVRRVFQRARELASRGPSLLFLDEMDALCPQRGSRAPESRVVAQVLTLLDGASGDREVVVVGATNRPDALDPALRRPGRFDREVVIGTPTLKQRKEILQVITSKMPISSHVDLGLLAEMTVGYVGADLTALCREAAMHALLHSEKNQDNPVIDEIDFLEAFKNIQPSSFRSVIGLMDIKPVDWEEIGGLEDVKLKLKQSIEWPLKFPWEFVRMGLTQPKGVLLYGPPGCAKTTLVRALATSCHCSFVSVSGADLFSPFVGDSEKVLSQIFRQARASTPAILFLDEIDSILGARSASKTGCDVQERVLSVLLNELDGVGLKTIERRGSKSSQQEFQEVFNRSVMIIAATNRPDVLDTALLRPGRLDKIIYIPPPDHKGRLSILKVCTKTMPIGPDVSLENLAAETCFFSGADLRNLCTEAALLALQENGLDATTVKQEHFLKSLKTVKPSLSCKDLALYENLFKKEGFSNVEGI

T2: SPATA5 (human (endogenous in HCT116)) (UniProt Q8NB90)
T2 sequence: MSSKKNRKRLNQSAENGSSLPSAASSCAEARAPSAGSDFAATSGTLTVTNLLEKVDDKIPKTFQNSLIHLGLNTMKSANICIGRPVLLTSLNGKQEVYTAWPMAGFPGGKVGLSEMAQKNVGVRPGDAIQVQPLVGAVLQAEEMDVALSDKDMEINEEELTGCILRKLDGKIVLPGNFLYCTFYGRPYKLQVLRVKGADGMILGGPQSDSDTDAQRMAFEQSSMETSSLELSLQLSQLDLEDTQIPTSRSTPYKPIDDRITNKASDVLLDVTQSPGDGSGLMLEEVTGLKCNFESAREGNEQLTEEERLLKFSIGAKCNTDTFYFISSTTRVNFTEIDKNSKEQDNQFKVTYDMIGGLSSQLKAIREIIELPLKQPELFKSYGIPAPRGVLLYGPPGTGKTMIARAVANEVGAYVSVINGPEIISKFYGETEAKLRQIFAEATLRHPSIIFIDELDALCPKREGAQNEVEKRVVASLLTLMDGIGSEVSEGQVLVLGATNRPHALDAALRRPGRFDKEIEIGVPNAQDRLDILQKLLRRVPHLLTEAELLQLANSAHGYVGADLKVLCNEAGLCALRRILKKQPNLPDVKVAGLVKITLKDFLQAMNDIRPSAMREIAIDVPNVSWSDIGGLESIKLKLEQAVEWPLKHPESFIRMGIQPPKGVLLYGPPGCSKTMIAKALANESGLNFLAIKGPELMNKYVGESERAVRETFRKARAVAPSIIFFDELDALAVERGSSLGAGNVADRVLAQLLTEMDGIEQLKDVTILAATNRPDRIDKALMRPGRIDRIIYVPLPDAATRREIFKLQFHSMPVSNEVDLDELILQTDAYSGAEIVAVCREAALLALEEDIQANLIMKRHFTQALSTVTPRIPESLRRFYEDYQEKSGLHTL

T3: C1ORF109 (human (endogenous in HCT116)) (UniProt Q9NX04)
T3 sequence: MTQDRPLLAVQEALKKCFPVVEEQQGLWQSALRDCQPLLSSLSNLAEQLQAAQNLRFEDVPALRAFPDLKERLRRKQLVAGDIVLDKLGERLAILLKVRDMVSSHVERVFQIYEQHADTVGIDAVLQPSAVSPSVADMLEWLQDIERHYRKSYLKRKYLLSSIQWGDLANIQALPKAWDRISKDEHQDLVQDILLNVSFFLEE


Tests used:
Assay in all cases: affinity purification with mass spectrometry
[1] = molecular target: T1, SPATA5L1 (human (endogenous in HCT116))
[2] = molecular target: T2, SPATA5 (human (endogenous in HCT116))
[3] = substrate: T4, CINP (cyclin-dependent kinase 2 interacting protein) (human (endogenous in HCT116)) (UniProt Q9BW66)
T4 sequence: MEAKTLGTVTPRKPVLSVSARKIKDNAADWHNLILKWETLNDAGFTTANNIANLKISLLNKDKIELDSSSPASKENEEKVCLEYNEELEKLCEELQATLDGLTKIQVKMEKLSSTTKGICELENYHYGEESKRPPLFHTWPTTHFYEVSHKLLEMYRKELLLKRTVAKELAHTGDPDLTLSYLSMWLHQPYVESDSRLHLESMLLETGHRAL

[4] = molecular target: T3, C1ORF109 (human (endogenous in HCT116))

Row | binding [1] | binding [2] | binding [3] | binding [4] | Binder
1 | binds | binds |  |  | CINP (cyclin-dependent kinase 2 interacting protein) (protein, UniProt Q9BW66 1-212) MEAKTLGTVTPRKPVLSVSARKIKDNAADWHNLILKWETLNDAGFTTANNIANLKISLLNKDKIELDSSSPASKENEEKVCLEYNEELEKLCEELQATLDGLTKIQVKMEKLSSTTKGICELENYHYGEESKRPPLFHTWPTTHFYEVSHKLLEMYRKELLLKRTVAKELAHTGDPDLTLSYLSMWLHQPYVESDSRLHLESMLLETGHRAL
2 | binds |  | binds | binds | SPATA5 (protein, UniProt Q8NB90 1-893) MSSKKNRKRLNQSAENGSSLPSAASSCAEARAPSAGSDFAATSGTLTVTNLLEKVDDKIPKTFQNSLIHLGLNTMKSANICIGRPVLLTSLNGKQEVYTAWPMAGFPGGKVGLSEMAQKNVGVRPGDAIQVQPLVGAVLQAEEMDVALSDKDMEINEEELTGCILRKLDGKIVLPGNFLYCTFYGRPYKLQVLRVKGADGMILGGPQSDSDTDAQRMAFEQSSMETSSLELSLQLSQLDLEDTQIPTSRSTPYKPIDDRITNKASDVLLDVTQSPGDGSGLMLEEVTGLKCNFESAREGNEQLTEEERLLKFSIGAKCNTDTFYFISSTTRVNFTEIDKNSKEQDNQFKVTYDMIGGLSSQLKAIREIIELPLKQPELFKSYGIPAPRGVLLYGPPGTGKTMIARAVANEVGAYVSVINGPEIISKFYGETEAKLRQIFAEATLRHPSIIFIDELDALCPKREGAQNEVEKRVVASLLTLMDGIGSEVSEGQVLVLGATNRPHALDAALRRPGRFDKEIEIGVPNAQDRLDILQKLLRRVPHLLTEAELLQLANSAHGYVGADLKVLCNEAGLCALRRILKKQPNLPDVKVAGLVKITLKDFLQAMNDIRPSAMREIAIDVPNVSWSDIGGLESIKLKLEQAVEWPLKHPESFIRMGIQPPKGVLLYGPPGCSKTMIAKALANESGLNFLAIKGPELMNKYVGESERAVRETFRKARAVAPSIIFFDELDALAVERGSSLGAGNVADRVLAQLLTEMDGIEQLKDVTILAATNRPDRIDKALMRPGRIDRIIYVPLPDAATRREIFKLQFHSMPVSNEVDLDELILQTDAYSGAEIVAVCREAALLALEEDIQANLIMKRHFTQALSTVTPRIPESLRRFYEDYQEKSGLHTL
3 |  | binds | binds | binds | SPATA5L1 (protein, UniProt Q9BVQ7 1-753) MAPDSDPFPEGPLLKLLPLDARDRGTQRCRLGPAALHALGARLGSAVKISLPDGGSCLCTAWPRRDGADGFVQLDPLCASPGAAVGASRSRRSLSLNRLLLVPCPPLRRVAVWPVLRERAGAPGARNTAAVLEAAQELLRNRPISLGHVVVAPPGAPGLVAALHIVGGTPSPDPAGLVTPRTRVSLGGEPPSEAQPQPEVPLGGLSEAADSLRELLRLPLRYPRALTALGLAVPRGVLLAGPPGVGKTQLVRAVAREAGAELLAVSAPALQGSRPGETEENVRRVFQRARELASRGPSLLFLDEMDALCPQRGSRAPESRVVAQVLTLLDGASGDREVVVVGATNRPDALDPALRRPGRFDREVVIGTPTLKQRKEILQVITSKMPISSHVDLGLLAEMTVGYVGADLTALCREAAMHALLHSEKNQDNPVIDEIDFLEAFKNIQPSSFRSVIGLMDIKPVDWEEIGGLEDVKLKLKQSIEWPLKFPWEFVRMGLTQPKGVLLYGPPGCAKTTLVRALATSCHCSFVSVSGADLFSPFVGDSEKVLSQIFRQARASTPAILFLDEIDSILGARSASKTGCDVQERVLSVLLNELDGVGLKTIERRGSKSSQQEFQEVFNRSVMIIAATNRPDVLDTALLRPGRLDKIIYIPPPDHKGRLSILKVCTKTMPIGPDVSLENLAAETCFFSGADLRNLCTEAALLALQENGLDATTVKQEHFLKSLKTVKPSLSCKDLALYENLFKKEGFSNVEGI
